Measured values: patent US20040082510A1, “Pyk2 phosphorylation by her3 induces tumor invasion” (priority 2001, published 2004)
For at least one compound, name, drawing or mass did not settle the structure.

Legend:
[1] = system: PYK2 tyrosine phosphorylation in SF767 gliomas; experiment: PYK2 tyrosine phosphorylation in SF767 gliomas (immunoprecipitation, anti-phosphotyrosine western blot); format: cell-based, human; conditions: 5 μg/ml HRG 20 min, pretreatment with PP1 5 μM 30 min, AG825 10 μM 1 hour or Wortmannin 100 nM 30 min
Method: SF767 gliomas were pretreated with 5 μM PP1 for 30 minutes and stimulated either with 5 μg ml^−1 Heregulin (HRG, left panel) or 5 μM lonomycin (IONO, right panel) for 20 min and 5 min, respectively. b, PYK2 coprecipitation with HER3 depends on the HER2 kinase activity, and tyrosine phosphorylation of PYK2 is proportional to its binding to HER3. SF767 gliomas were pretreated with 10 μM AG825 for 1 hour and stimulated with 5 μg ml^−1 Heregulin for 20 min (HRG). Cell lysates were subjected to immunoprecipitation (IP) using polyclonal anti-PYK2 (α-PYK2) or monoclonal anti-HER3 (α-HER3) antibodies. Tyrosine phosphorylation level was analysed by western blotting (WB) with monoclonal anti-phosphotyrosine antibody (α-4G10) (a, upper panels, and b, upper panel). Equal loading of proteins was checked by reblotting with α-PYK2 and α-HER3 antibodies, respectively (a, lower panels, and b, middle and lower panels). PYK2 coprecipitating with HER3 was detected by probing the membrane with α-PYK2 antibody (b, middle panel, lanes 1-4). Unstimulated cells are indicated by NS. […]
Proteins were fractionated by SDS-PAGE and electrophoretically transferred to nitrocellulose filters. […] The substrate reaction was detected on Kodak X-Omat film. […]

HER3 = HER3 in vitro kinase assay with GST-PYK2-CT as substrate (immunoprecipitates from SF767 gliomas); format: biochemical, human; conditions: SF767 pretreated with 100 nM Wortmannin 30 min; HRG stimulation
[2] = system: ERK-2 activity in PC12 cells; experiment: MAP-kinase assay on ERK-2 immunocomplexes from tetracyclin-inducible PC12 cells (Tet-off PYK2-KM); format: cell-based, rat; conditions: AG825 10 μM 1 hour, WT 100 nM 30 min or PYK2-KM expression (Tet−)
[3] = system: ERK-2 activity in SF767 gliomas; experiment: MAP-kinase assay on ERK-2 immunocomplexes from SF767 gliomas; format: cell-based, human; conditions: AG825 10 μM 1 hour or WT 100 nM 30 min, 5 μg/ml HRG 20 min
Method: FIG. 5: PYK2 mediates mitogenicity upon HRG stimulation. a, b, SF767 gliomas were pretreated either with 10 μM AG825 for 1 hour or with 100 nM Wortmannin for 30 min (WT), and then stimulated with 5 μg ml^−1 Heregulin for 20 min (HRG). Tyrosine phosphorylation of SHC was elevated by HRG and attenuated by pretreatment with AG825, but not fully abrogated (a). The same holds also for ERK-2 activity, when cells were pretreated either with AG825 or with WT (b). Cell lysates were used for immunoprecipitation with polyclonal anti-SHC (α-SHC) (a), or polyclonal anti-Erk-2 (α-ERK-2) antibodies (b). α-SHC-immunocomplexes were blotted with a monoclonal anti-phosphotyrosine antibody (α-4G10) (a), whereas α-ERK-2 immunocomplexes were subjected to MAP-kinase assays (b). Phosphorylated MBP is indicated by an arrow. c, Tetracyclin-inducible pheochromocytoma PC12 cells, either stably expressing PYK2-KM (Tet−), or only endogenous PYK2 (Tet+), were pretreated either with 100 nm Wortmannin for 30 min (WT), or 10 μM AG825 for 1 hour prior to stimulation with 5 μg ml^−1 Heregulin for 20 min (HRG). Basal ERK-2 activity is independent of HER2 and Pl3-K, whereas the HRG-stimulated ERK-2 activity is dependent on HER2, Pl3-K and PYK2. Overexpression of PYK2-KM leads to a general attenuation of ERK-2 activity (compare Tet− with Tet+ bands). […]

In the case of `COC[C@H]1OC(=O)c2coc3c2[C@@]1(C)C1=C(C3=O)[C@@H]2CCC(=O)[C@@]2(C)C[C@H]1OC(C)=O` [Wortmannin], the “HRG-induced tyrosine phosphorylation of PYK2” value [1] is reported as “independent of Pl3-K”, the “Phosphorylation of GST-PYK2-CT by HER3” value (HER3) is reported as “negligible” and the “HRG-stimulated ERK-2 activity” value ([2]; 5 μg/ml HRG 20 min) is reported as “attenuated”. For the same molecule, the “Basal ERK-2 activity” value ([2]; unstimulated) was “not influenced” and the “HRG-stimulated ERK-2 activity” value [3] was “reduced”.
